Assay results taken from article PMC11014987.
Results are given in words; binding and its absence hold for the method and conditions named. For part of these data: A result given as binding can be weak or reduced; the word gives no strength. Sequences can lack the tags named with a protein.

How the values were obtained:
Assay in all cases: two-hybrid; yeast Y2H-Gold, Gal4 system (pGBKT7 / pGADT7-AD); growth on SD -Leu -Trp -His -Ala, 30 °C, 3 days; three independent clones
[1] = target: SdhA, flavoprotein subunit of succinate dehydrogenase (yeast two-hybrid fusion) (Synechocystis sp. PCC 6803)
[2] = target: SdhB1 with mutation of Cys214 (yeast two-hybrid fusion) (Synechocystis sp. PCC 6803) (UniProt P73723)
[3] = target: sll1946 (yeast two-hybrid fusion) (Synechocystis sp. PCC 6803)
[4] = target: SdhB2 (sll0823) (yeast two-hybrid fusion) (Synechocystis sp. PCC 6803) (UniProt Q55431)
[5] = target: slr1020 (yeast two-hybrid fusion) (Synechocystis sp. PCC 6803)
[6] = target: HdrB (also referred to as SdhEE) (yeast two-hybrid fusion) (Synechocystis sp. PCC 6803)

B1: Dri1 (yeast two-hybrid fusion) (protein, UniProt P73129 1-96)
chain: MADPLTPAISDRICKHMNEDHASAIALYAQVFGQQTDVTMAQMQAIDPTGMDLVVESEGGSKTIRIEFEQPLKDSEDAHQVLIAMAKQARSVGKNS
**Q.** How did the binding [1] turn out when B1 was run?
**A.** no binding

**Q.** What about the binding [2] of the same binder?
**A.** no binding

**Q.** And the binding [3]?
**A.** no binding

**Q.** And the binding [4]?
**A.** binds

**Q.** And the binding [5]?
**A.** no binding

**Q.** What about the binding [6] of the same binder?
**A.** no binding
